Results from patent publication US20250073226A1, “USE OF OPIOID FOR TREATMENT OF AUTISM SPECTRUM DISORDERS” (priority 2021, published 2025).
Values joined by “and” are separate entries in the source; they are usually repeats but may differ in a detail not shown here. Equal entries are not always repeated.

Columns and labels:
[1] = test system: valproic acid model mice (VPA model); test: Social interaction test in valproic acid model mice; type: in vivo, ICR mice; details: single s.c. dose
Description: Since ASD-like symptoms such as social impairment and cognitive dysfunction are observed, it is one of the most widely used the ASD model mice.
As the sociality evaluation, a method called a social interaction test was used. In the Social Interaction Test, two mice are placed in one cage, and how many seconds a target mouse (Test mouse) performs sniffing, which is social behavior, on another mouse (Intruder mouse) is quantified.

[2] = Pharmacokinetic: drug concentrations in plasma by LC-MS after subcutaneous administration; details: ICR mice; for concentration at 15 min / concentration at 30 min / concentration at 60 min / concentration at 90 min: ICR, mouse, plasma, subcutaneous; for concentration at 15 min: Plasma concentration Morphine After 15 minutes; for concentration at 30 min: Plasma concentration Morphine After 30 minutes; for concentration at 60 min: Plasma concentration Morphine After 60 minutes; for concentration at 90 min: Plasma concentration Morphine After 90 minutes
[3] = morphine hydrochloride 0.03 mg/kg s.c., individual animals
[4] = morphine hydrochloride 0.1 mg/kg s.c., individual animals
[5] = morphine hydrochloride 3 mg/kg s.c., individual animals
[6] = 0.03 mg/kg, morphine hydrochloride 0.03 mg/kg s.c., Average value
[7] = 0.03 mg/kg, morphine hydrochloride 0.03 mg/kg s.c., individual animals
[8] = 0.1 mg/kg, morphine hydrochloride 0.1 mg/kg s.c., Average value
[9] = 0.1 mg/kg, morphine hydrochloride 0.1 mg/kg s.c., individual animals
[10] = 3 mg/kg, morphine hydrochloride 3 mg/kg s.c., Average value
[11] = 3 mg/kg, morphine hydrochloride 3 mg/kg s.c., individual animals

In the case of `CN1CC[C@]23c4c5ccc(O)c4O[C@H]2[C@@H](O)C=C[C@H]3[C@H]1C5` [morphine], the “improvement effect in social impairment at a high dose” value ([1]; high dose close to the analgesic dose) is reported as “reduced the improvement effect in social impairment”, the “improvement effect in social impairment” value ([1]; low dose of less than 1/10 of the dose of maximum analgesic effect, 20 minutes from 1 hour after administration) is reported as “significant improvement effect in social impairment” and the “Plasma concentration Morphine After 15 minutes” value [2, 3] is reported as 1.74 ng/mL and 1.9 ng/mL. For the same compound, the “Plasma concentration Morphine After 30 minutes” value [2, 3] was 0.993 ng/mL and 0.966 ng/mL, the “Plasma concentration Morphine After 60 minutes” value [2, 3] was 0.606 ng/mL and 0 ng/mL (2×) and the “Plasma concentration Morphine After 90 minutes” value [2, 3] was 0 ng/mL. The “Plasma concentration Morphine After 15 minutes” value [2, 4] was 5.62 ng/mL and 8.85 ng/mL, the “Plasma concentration Morphine After 30 minutes” value [2, 4] was 2.99 ng/mL and 2.47 ng/mL and the “Plasma concentration Morphine After 60 minutes” value [2, 4] was 0 ng/mL and 0.579 ng/mL. For the same compound, the “Plasma concentration Morphine After 90 minutes” value [2, 4] was 0 ng/mL, the “Plasma concentration Morphine After 15 minutes” value [2, 5] was 442 ng/mL and 361 ng/mL and the “Plasma concentration Morphine After 30 minutes” value [2, 5] was 241 ng/mL and 123 ng/mL and 105 ng/mL. For the same compound, the “Plasma concentration Morphine After 60 minutes” value [2, 5] was 74.1 ng/mL and 70 ng/mL, the “Plasma concentration Morphine After 90 minutes” value [2, 5] was 16 ng/mL and 16.9 ng/mL and 32.2 ng/mL and the concentration at 15 min [2, 6] was 2.33 ng/mL. For the same compound, the concentration at 15 min [2, 7] was 3.36 ng/mL, the concentration at 30 min [2, 6] was 1.12 ng/mL and the concentration at 30 min [2, 7] was 1.39 ng/mL. It also gave a concentration at 60 min [2, 6] of 0.202 ng/mL, a concentration at 90 min [2, 6] of 0 ng/mL and a concentration at 90 min [2, 7] of 0 ng/mL. It also gave a concentration at 15 min [2, 8] of 7.37 ng/mL, a concentration at 15 min [2, 9] of 7.65 ng/mL and a concentration at 30 min [2, 8] of 3.02 ng/mL. For the same compound, the concentration at 30 min [2, 9] was 3.61 ng/mL, the concentration at 60 min ([2]; 0.1 mg/kg, morphine hydrochloride 0.1 mg/kg s.c., Average value (N = 3 excluded as outlier)) was 0.29 ng/mL and the concentration at 90 min [2, 8] was 0 ng/mL. For the same compound, the concentration at 90 min [2, 9] was 0 ng/mL, the concentration at 15 min [2, 10] was 362 ng/mL and the concentration at 15 min [2, 11] was 284 ng/mL. For the same compound, the concentration at 30 min [2, 10] was 156 ng/mL, the concentration at 60 min [2, 10] was 71.7 ng/mL and the concentration at 60 min [2, 11] was 71 ng/mL. For the same compound, the concentration at 90 min [2, 10] was 21.7 ng/mL.
